# Results taken from the supplement of paper PMC12889115.
# Some of the results follow. These are raw signals, not scaled to a control.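 Primary screen: polymyxin B was added at a level permeabilizing Salmonella outer membranes while sparing inner membranes. DMSO wells, both with and without polymyxin B, established maximum growth. Plate-to-plate variation meant each plate was ranked on its own, and the lowest-OD600 compounds were selected as hits.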
# Tested on: Salmonella enterica serovar Typhimurium SL1344
# Assay: bacterial growth OD600 after 18 h with compound and polymyxin B; higher = more bacterial growth (less inhibition)
# Details: 50 µM, Mueller-Hinton broth
smiles,measurement,setting,value
CCCn1ncc(CN2CCCC(CCC(=O)Nc3ccccc3F)C2)c1C (configuration not stated),bacterial growth OD600,polymyxin B 1 µg/mL,1.18
c1cnc(N2CCOCC2)c(CNC2C3CC4CC(C3)CC2C4)c1 (configuration not stated),bacterial growth OD600,polymyxin B 1 µg/mL,0.811
CCCN(CCC)c1ccc(C(=O)N2CCCN(c3ncccn3)CC2)cn1,bacterial growth OD600,polymyxin B 1 µg/mL,0.852
COc1ccc2cc(C(=O)C3CCCN(C(=O)C4CCCC4)C3)ccc2c1 (configuration not stated),bacterial growth OD600,polymyxin B 1 µg/mL,0.444
Cc1ccc2c(c1)CN(Cc1cnn(C)c1C)CC(c1ccsc1)O2 (configuration not stated),bacterial growth OD600,polymyxin B 0.75 µg/mL,0.067
FC(F)(F)c1ccc(-c2noc(CN3CCC(N4CCSCC4)CC3)n2)cc1,bacterial growth OD600,polymyxin B 1 µg/mL,0.919
CC(C)CC(=O)Nc1ccnn1C1CCN(Cc2ccc(F)cc2Cl)CC1,bacterial growth OD600,polymyxin B 0.75 µg/mL,0.457
Nc1ncc(CN2CCC(CO)(CCCc3ccccc3)CC2)cn1,bacterial growth OD600,polymyxin B 0.75 µg/mL,0.906
O=C(c1cnc[nH]1)N1CCC(C2CCN(c3ncccn3)CC2)C1 (configuration not stated),bacterial growth OD600,polymyxin B 0.75 µg/mL,0.859
Cc1cc(CNCC2(O)CCCN(CC(C)(C)C)C2=O)no1 (configuration not stated),bacterial growth OD600,polymyxin B 0.75 µg/mL,0.784
CCn1ccnc1CNC1CC(=O)N(C2Cc3ccccc3C2)C1 (configuration not stated),bacterial growth OD600,polymyxin B 1 µg/mL,0.937
COCCNC(=O)c1ccc(OC)cc1OC1CCN(Cc2ccc(F)c(OC)c2)CC1,bacterial growth OD600,polymyxin B 1 µg/mL,0.774
Cc1ccccc1N1CCN(C2CCCN(C(=O)Cn3nc4ccccc4n3)C2)CC1 (configuration not stated),bacterial growth OD600,polymyxin B 1 µg/mL,0.926
COCC1CCCN(C(=O)c2ccc(N(C)C)nc2)C1 (configuration not stated),bacterial growth OD600,polymyxin B 1 µg/mL,0.96
COC(=O)c1c(S(=O)(=O)NCc2ccc(Cl)cc2)sc2c1CCN(C(=O)C1CCC1)C2,bacterial growth OD600,polymyxin B 0.75 µg/mL,0.866
CC(C)c1nc(C(=O)N2CCOc3ccc(CN4CCN(c5ccc(F)cc5)CC4)cc3C2)cs1,bacterial growth OD600,polymyxin B 0.75 µg/mL,0.562
CSc1cccc(CN2CCc3[nH]nc(-c4ccc5c(c4)OCO5)c3C2)c1,bacterial growth OD600,polymyxin B 0.75 µg/mL,0.788
Cc1ccc(CC2(CCC(=O)N3CCC(C)CC3)CCC(=O)N2)cc1 (configuration not stated),bacterial growth OD600,polymyxin B 0.75 µg/mL,0.758
Cc1cccc(CNC(=O)c2cc(COc3cccc(C(F)(F)F)c3)on2)n1,bacterial growth OD600,polymyxin B 1 µg/mL,0.007
O=CN1CCCN(C(=O)c2csc3nc(-c4cccc(F)c4)cn23)CC1,bacterial growth OD600,polymyxin B 1 µg/mL,1.24
CCCCC1CN(CCNC(=O)c2c(F)cccc2Cl)Cc2ccccc2O1 (configuration not stated),bacterial growth OD600,polymyxin B 0.75 µg/mL,0.76
CN(C(=O)c1coc(COc2cccc(C(F)(F)F)c2)n1)C1CCOCC1,bacterial growth OD600,polymyxin B 1 µg/mL,0.974
CC(C)(C)CN1CCC(N2CCC(C(=O)NCc3ccccn3)CC2)CC1,bacterial growth OD600,polymyxin B 1 µg/mL,1
COc1cccc(-c2ccc(NC(=O)C3CCCN(Cc4cnn(C)c4C)C3)cc2)c1 (configuration not stated),bacterial growth OD600,polymyxin B 1 µg/mL,0.744
CCOC(=O)C1(Cc2ccc(Cl)cc2)CCN(C2CCCC2)CC1,bacterial growth OD600,polymyxin B 1 µg/mL,0.9
O=C(Nc1cccc(-c2cccc(Cl)c2)c1)C1CCN(C(=O)CCn2cnnn2)CC1,bacterial growth OD600,polymyxin B 1 µg/mL,0.712
CCOC(=O)C1(Cc2ccccc2C)CCCN(S(=O)(=O)c2c(C)n[nH]c2C)C1 (configuration not stated),bacterial growth OD600,polymyxin B 1 µg/mL,0.585
CC(C)N(C)Cc1nnnn1CC(=O)N1CCCC(OCc2ccccn2)C1 (configuration not stated),bacterial growth OD600,polymyxin B 0.75 µg/mL,0.807
COc1ccc(C(=O)Nc2ccnn2C2CCN(C(=O)C3CC34CCC4)CC2)cc1 (configuration not stated),bacterial growth OD600,polymyxin B 1 µg/mL,0.897
CC1=C(C(=O)N2CCCC(C(=O)c3cccc4ccccc34)C2)OCCO1 (configuration not stated),bacterial growth OD600,polymyxin B 1 µg/mL,0.795
Cc1cc(C)c(C(=O)NC2CC(C)(C)Cc3nc(N4CCOCC4)ncc32)o1 (configuration not stated),bacterial growth OD600,polymyxin B 0.75 µg/mL,1.09
CCOC(=O)CC1(NC(=O)C2CCC(=O)N(CCc3ccccn3)C2)CCCCC1 (configuration not stated),bacterial growth OD600,polymyxin B 1 µg/mL,1.04

# Retrieved one by one from the list above:
smiles,measurement,setting,value
Cc1ccc2c(c1)CN(Cc1cnn(C)c1C)CC(c1ccsc1)O2 (configuration not stated),bacterial growth OD600,polymyxin B 0.75 µg/mL,0.067
CCCn1ncc(CN2CCCC(CCC(=O)Nc3ccccc3F)C2)c1C (configuration not stated),bacterial growth OD600,polymyxin B 1 µg/mL,1.18
